For this experiment, the system named is L1210 leukemia ip in BDF1 mice, survival T/C. Nature of the experiment: NCI In Vivo Anticancer Drug Screen. Data for tumor model L1210 Leukemia (intraperitoneal) in B6D2F1 (BDF1) mice. The following applies: higher T/C = longer survival.
[1] abbreviates: T/C endpoint: median survival time, dose: 8.0 mg/kg/injection, schedule: Q01DX009 (ip), vehicle: water.
Setting [2] is: T/C endpoint: mean survival time, dose: 120.0 mg/kg/injection, schedule: Q01DX Z (ip), vehicle: carboxymethylcellulose (CMC).

The list is a part of this screen's results and no random one: it gathers tests that were run many times, whatever their T/C, doses with no T/C, and many T/C values between a quarter and a half above the control. Other doses and runs of a compound stand elsewhere. T/C: endpoint of the treated group in % of that of the vehicle group. Some entries give survivors of the animals treated and no T/C: the source holds a T/C of zero for them, seemingly a mark for toxic or unscored doses. Some survivor counts are full or nearly so, which does not show that the dose was tolerated: the source hardly ever lists a survival T/C far under the control, and the zero likely stands for such cases as well. Survivors were counted at the toxicity check, usually on the fifth day, unless a day is given; later deaths do not show. Schedules are NCI's codes, taken here to give the interval after Q, in days (D) or hours (H), and the number of doses after X. Some entries hold several experiments; the results are listed from low to high. Some schedule codes hold Z or #, which are not explained here. For survival time, this PubChem deposit counts one and a half times the control or more as active, and values a quarter to a half above the control carry no call in these data; other NCI protocols may use other cut-offs. Signs of the kind (2×) stand for listed records that agree. Some T/C values are followed by the survivors on the day toxicity was checked, most often the fifth; without a count, all were alive then.

Consider `CC[n+]1ccc(Nc2ccc(NC(=O)c3ccc(Nc4cc[n+](CC)c5ccc(N)cc45)cc3)cc2)cc1`, for which the T/C is, setting by setting: (T/C endpoint: mean survival time, dose: 0.05 mg/kg/injection, schedule: Q01DX009 (ip), vehicle: water) 140 % of control; (T/C endpoint: mean survival time, dose: 0.37 mg/kg/injection, schedule: Q01DX009 (ip), vehicle: saline) 127 and 141 % of control; (T/C endpoint: mean survival time, dose: 0.5 mg/kg/injection, schedule: Q01DX009 (ip), vehicle: water) 129 % of control; (T/C endpoint: mean survival time, dose: 0.5 mg/kg/injection, schedule: Q03HX016 (ip), vehicle: water) 147 % of control; (T/C endpoint: mean survival time, dose: 0.5 mg/kg/injection, schedule: Q03HX024 (ip), vehicle: water) 136 % of control; (T/C endpoint: mean survival time, dose: 0.5 mg/kg/injection, schedule: Q03HX024 (sc), vehicle: water) 129 % of control [7 of 8 alive]. Also, the T/C is 126 % of control (T/C endpoint: mean survival time, dose: 1.0 mg/kg/injection, schedule: Q01DX005 (iv), vehicle: water); 146 % of control (T/C endpoint: mean survival time, dose: 1.0 mg/kg/injection, schedule: Q01DX009 (ip), vehicle: water); 218 and 227 % of control (T/C endpoint: mean survival time, dose: 2.0 mg/kg/injection, schedule: Q01DX009 (ip), vehicle: water, evaluated on day 30); 183 and 267 % of control (T/C endpoint: mean survival time, dose: 2.0 mg/kg/injection, schedule: Q01DX009 (ip), vehicle: water, evaluated on day 60); 155 and 283 % of control (T/C endpoint: mean survival time, dose: 4.0 mg/kg/injection, schedule: Q01DX009 (ip), vehicle: water, evaluated on day 30); 221 and 316 % of control (T/C endpoint: mean survival time, dose: 4.0 mg/kg/injection, schedule: Q01DX009 (ip), vehicle: water, evaluated on day 60). The T/C was 130 % of control (T/C endpoint: mean survival time, dose: 4.0 mg/kg/injection, schedule: Q03HX008 (ip), vehicle: water); 135 % of control (T/C endpoint: mean survival time, dose: 4.0 mg/kg/injection, schedule: Q03HX024 (sc), vehicle: water); 140 % of control (T/C endpoint: mean survival time, dose: 4.0 mg/kg/injection, schedule: Q04DX003 (ip), vehicle: water, evaluated on day 30); 145 % of control (T/C endpoint: mean survival time, dose: 4.0 mg/kg/injection, schedule: Q04DX003 (ip), vehicle: water, evaluated on day 60); 127 % of control (T/C endpoint: mean survival time, dose: 5.0 mg/kg/injection, schedule: Q01DX001 (ip), vehicle: saline); 147 % of control (T/C endpoint: mean survival time, dose: 5.4 mg/kg/injection, schedule: Q01DX009 (ip), vehicle: saline). Besides, the T/C (T/C endpoint: mean survival time, dose: 8.0 mg/kg/injection, schedule: Q01DX001 (ip), vehicle: saline) was 133 % of control; the T/C (T/C endpoint: mean survival time, dose: 8.0 mg/kg/injection, schedule: Q01DX001 (ip), vehicle: water) was 132 % of control; the T/C (T/C endpoint: mean survival time, dose: 8.0 mg/kg/injection, schedule: Q01DX009 (ip), vehicle: water, evaluated on day 30) is 145 % of control; the T/C (T/C endpoint: mean survival time, dose: 8.0 mg/kg/injection, schedule: Q01DX009 (ip), vehicle: water, evaluated on day 60) is 128 % of control; the T/C (T/C endpoint: mean survival time, dose: 8.0 mg/kg/injection, schedule: Q03HX008 (ip), vehicle: water) was 138 % of control; the T/C (T/C endpoint: mean survival time, dose: 8.0 mg/kg/injection, schedule: Q08DX002 (ip), vehicle: water) is 143 % of control. Further, the T/C is, setting by setting: (T/C endpoint: mean survival time, dose: 8.0 mg/kg/injection, schedule: Q08DX002 (oral), vehicle: water) 126 % of control; (T/C endpoint: mean survival time, dose: 12.0 mg/kg/injection, schedule: Q01DX001 (ip), vehicle: saline) 148 % of control; (T/C endpoint: mean survival time, dose: 12.5 mg/kg/injection, schedule: Q01DX001 (ip), vehicle: saline) 129 % of control; (T/C endpoint: mean survival time, dose: 16.0 mg/kg/injection, schedule: Q01DX001 (ip), vehicle: water) 147 % of control; (T/C endpoint: mean survival time, dose: 16.0 mg/kg/injection, schedule: Q03HX008 (ip), vehicle: water) 142 % of control [9 of 10 alive]; (T/C endpoint: mean survival time, dose: 16.0 mg/kg/injection, schedule: Q08DX002 (oral), vehicle: water) 128 % of control [9 of 10 alive]. Also, the T/C is 120 % of control (2×) (T/C endpoint: median survival time, dose: 0.25 mg/kg/injection, schedule: Q01DX009 (ip), vehicle: water, evaluated on day 25); 111 and 116 % of control [9 of 10 alive] (T/C endpoint: median survival time, dose: 0.25 mg/kg/injection, schedule: Q01DX009 (ip), vehicle: water, evaluated on day 33); 120 and 130 % of control (T/C endpoint: median survival time, dose: 0.5 mg/kg/injection, schedule: Q01DX009 (ip), vehicle: water, evaluated on day 25); 111 and 138 % of control (T/C endpoint: median survival time, dose: 0.5 mg/kg/injection, schedule: Q01DX009 (ip), vehicle: water, evaluated on day 33); 138 % of control (T/C endpoint: median survival time, dose: 0.8 mg/kg/injection, schedule: Q03HX024 (ip), vehicle: water, evaluated on day 7); 135 % of control (T/C endpoint: median survival time, dose: 0.8 mg/kg/injection, schedule: Q03HX024 (ip), vehicle: water, evaluated on day 32). In addition, the T/C (T/C endpoint: median survival time, dose: 1.0 mg/kg/injection, schedule: Q01DX009 (ip), vehicle: water, evaluated on day 25) was 125 and 150 % of control; the T/C (T/C endpoint: median survival time, dose: 1.0 mg/kg/injection, schedule: Q01DX009 (ip), vehicle: water, evaluated on day 33) is 111 and 200 % of control; the T/C (T/C endpoint: median survival time, dose: 2.0 mg/kg/injection, schedule: Q01DX009 (ip), vehicle: water, evaluated on day 25) is 160 and 225 % of control; the T/C (T/C endpoint: median survival time, dose: 2.0 mg/kg/injection, schedule: Q01DX009 (ip), vehicle: water, evaluated on day 33) is 177 and 255 % of control; the T/C (T/C endpoint: median survival time, dose: 4.0 mg/kg/injection, schedule: Q01DX009 (ip), vehicle: water, evaluated on day 25) is 110 % of control [7 of 8 alive]; the T/C (T/C endpoint: median survival time, dose: 4.0 mg/kg/injection, schedule: Q01DX009 (ip), vehicle: water, evaluated on day 33) is 133 % of control. Besides, the T/C under setting [1] is 105 % of control. For the same compound, the survivor count runs as follows: (T/C endpoint: mean survival time, dose: 2.0 mg/kg/injection, schedule: Q01DX005 (iv), vehicle: water) 0 of 10; (T/C endpoint: mean survival time, dose: 4.0 mg/kg/injection, schedule: Q01DX005 (iv), vehicle: water) 0 of 8; (T/C endpoint: mean survival time, dose: 32.0 mg/kg/injection, schedule: Q01DX001 (ip), vehicle: water) 5 of 10; (T/C endpoint: mean survival time, dose: 32.0 mg/kg/injection, schedule: Q04DX003 (ip), vehicle: water) 0 of 10; (T/C endpoint: mean survival time, dose: 32.0 mg/kg/injection, schedule: Q08DX002 (ip), vehicle: water) 2 of 10; (T/C endpoint: mean survival time, dose: 32.0 mg/kg/injection, schedule: Q08DX002 (oral), vehicle: water) 6 of 10. Further, the survivor count is 0 of 6 (T/C endpoint: mean survival time, dose: 50.0 mg/kg/injection, schedule: Q01DX001 (ip), vehicle: saline); 3 of 8 and 6 of 10 (T/C endpoint: median survival time, dose: 4.0 mg/kg/injection, schedule: Q01DX009 (ip), vehicle: water); 0 of 10, 0 of 8, 10 of 10 under setting [1]; 0 of 10, 0 of 8, 2 of 8 (T/C endpoint: median survival time, dose: 16.0 mg/kg/injection, schedule: Q01DX009 (ip), vehicle: water).

Turning to `CC(=N\N=C(N)N)/C(N=Nc1ccc(S(N)(=O)=O)cc1)=N\N=C(N)N`, the T/C was 141 % of control (T/C endpoint: mean survival time, dose: 30.0 mg/kg/injection, schedule: Q01DX Z (ip), vehicle: carboxymethylcellulose (CMC)); 132 and 140 % of control [5 of 6 alive] under setting [2]; 129 % of control (T/C endpoint: mean survival time, dose: 120.0 mg/kg/injection, schedule: Q01DX Z (oral), vehicle: carboxymethylcellulose (CMC)). For the same compound, the survivor count is recorded as 2 of 6 under setting [2]; 0 of 6 (T/C endpoint: mean survival time, dose: 240.0 mg/kg/injection, schedule: Q01DX Z (ip), vehicle: carboxymethylcellulose (CMC)); 0 of 6 (T/C endpoint: mean survival time, dose: 480.0 mg/kg/injection, schedule: Q01DX Z (ip), vehicle: carboxymethylcellulose (CMC)).

Turning to `CCCCCCCCCC(=O)N1CCCC(C)C1` (stereo unspecified), the survivor count reads like this: (T/C endpoint: mean survival time, dose: 200.0 mg/kg/injection, schedule: Q01DX009 (ip), vehicle: carboxymethylcellulose (CMC)) 3 of 3; (T/C endpoint: mean survival time, dose: 400.0 mg/kg/injection, schedule: Q04DX002 (ip), vehicle: carboxymethylcellulose (CMC)) 3 of 3.

(Values after PubChem BioAssay AID248 (DTP/NCI, 2004).)
